Source: the M2OR odorant receptor database
This is a selection; strong and weak results do not stand in their true shares. The calls were merged from several studies; some rest on single wells. The list shows a part of the results.

The chains behind the UniProt entries cited, without tags or fusion partners. A line that says so, or that is headed by a name, gives the form on record, which may keep a tag or linker.
UniProt E9PXH6, as listed by the source: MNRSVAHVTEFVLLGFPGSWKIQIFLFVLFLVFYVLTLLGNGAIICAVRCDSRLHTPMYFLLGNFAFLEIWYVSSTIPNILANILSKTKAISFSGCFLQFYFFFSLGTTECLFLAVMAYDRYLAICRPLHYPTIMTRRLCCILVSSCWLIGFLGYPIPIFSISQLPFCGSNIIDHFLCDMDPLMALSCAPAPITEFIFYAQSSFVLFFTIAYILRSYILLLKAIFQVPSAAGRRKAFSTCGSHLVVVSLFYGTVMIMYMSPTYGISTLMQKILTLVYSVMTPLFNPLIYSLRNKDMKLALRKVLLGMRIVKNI
UniProt E1BBG9, as listed by the source: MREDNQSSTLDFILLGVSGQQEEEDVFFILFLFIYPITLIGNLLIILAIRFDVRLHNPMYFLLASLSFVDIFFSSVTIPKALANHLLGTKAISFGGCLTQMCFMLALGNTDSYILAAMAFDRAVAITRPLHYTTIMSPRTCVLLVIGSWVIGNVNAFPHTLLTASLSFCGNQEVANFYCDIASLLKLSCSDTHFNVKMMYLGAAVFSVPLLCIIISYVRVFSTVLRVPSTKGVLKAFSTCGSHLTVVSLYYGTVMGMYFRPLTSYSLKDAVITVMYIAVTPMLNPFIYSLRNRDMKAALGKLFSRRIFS
UniProt E1BM68, as listed by the source: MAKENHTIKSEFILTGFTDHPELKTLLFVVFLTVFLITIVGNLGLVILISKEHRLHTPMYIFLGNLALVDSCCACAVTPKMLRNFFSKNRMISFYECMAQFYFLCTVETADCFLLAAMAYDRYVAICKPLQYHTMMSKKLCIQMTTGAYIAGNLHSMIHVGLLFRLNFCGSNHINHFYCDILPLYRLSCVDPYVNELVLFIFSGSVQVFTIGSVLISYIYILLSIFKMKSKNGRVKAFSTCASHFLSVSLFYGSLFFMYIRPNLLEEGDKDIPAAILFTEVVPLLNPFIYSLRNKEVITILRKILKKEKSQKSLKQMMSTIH
UniProt D1MFA5, as listed by the source: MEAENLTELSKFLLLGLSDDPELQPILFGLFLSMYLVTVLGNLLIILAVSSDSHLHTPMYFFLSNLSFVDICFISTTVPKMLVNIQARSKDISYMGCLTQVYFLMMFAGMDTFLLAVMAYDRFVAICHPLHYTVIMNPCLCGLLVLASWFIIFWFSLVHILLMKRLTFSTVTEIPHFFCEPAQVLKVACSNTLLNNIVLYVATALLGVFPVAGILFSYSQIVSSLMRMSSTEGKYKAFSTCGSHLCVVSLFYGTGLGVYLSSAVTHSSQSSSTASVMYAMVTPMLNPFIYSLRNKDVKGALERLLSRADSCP

How the values were obtained:
Conditions in all cases: stereoisomer not certain
[1] = biological target: T1, UniProt E9PVX1
T1 sequence (whole entry): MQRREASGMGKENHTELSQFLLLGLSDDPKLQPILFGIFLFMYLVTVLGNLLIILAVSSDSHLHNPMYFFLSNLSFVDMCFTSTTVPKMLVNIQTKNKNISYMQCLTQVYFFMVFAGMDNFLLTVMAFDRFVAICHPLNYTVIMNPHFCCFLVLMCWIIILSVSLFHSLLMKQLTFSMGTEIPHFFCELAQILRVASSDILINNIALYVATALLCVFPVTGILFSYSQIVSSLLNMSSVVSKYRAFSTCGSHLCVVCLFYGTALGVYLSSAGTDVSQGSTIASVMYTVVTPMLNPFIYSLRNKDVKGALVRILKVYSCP
Outline: (§1)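 Assay methods differ from source to source, frequently being transient luciferase assays in mammalian cell lines. For each receptor–molecule pair, the label responsive (active) applies when the original authors judged the measured signal statistically different from baseline, and non-responsive (inactive) applies otherwise.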

[2] = biological target: T2, UniProt E9PX47
T2 sequence (whole entry): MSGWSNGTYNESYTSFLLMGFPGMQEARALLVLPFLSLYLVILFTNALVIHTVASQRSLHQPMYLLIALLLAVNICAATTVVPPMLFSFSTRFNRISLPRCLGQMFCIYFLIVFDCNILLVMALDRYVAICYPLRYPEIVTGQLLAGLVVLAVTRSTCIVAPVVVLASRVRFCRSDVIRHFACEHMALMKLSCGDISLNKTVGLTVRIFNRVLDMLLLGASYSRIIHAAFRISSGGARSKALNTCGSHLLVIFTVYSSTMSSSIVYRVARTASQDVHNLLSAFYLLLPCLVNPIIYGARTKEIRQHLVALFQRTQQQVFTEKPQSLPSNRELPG
Outline: as §1

[3] = biological target: T3, UniProt E9PXN3
T3 sequence (whole entry): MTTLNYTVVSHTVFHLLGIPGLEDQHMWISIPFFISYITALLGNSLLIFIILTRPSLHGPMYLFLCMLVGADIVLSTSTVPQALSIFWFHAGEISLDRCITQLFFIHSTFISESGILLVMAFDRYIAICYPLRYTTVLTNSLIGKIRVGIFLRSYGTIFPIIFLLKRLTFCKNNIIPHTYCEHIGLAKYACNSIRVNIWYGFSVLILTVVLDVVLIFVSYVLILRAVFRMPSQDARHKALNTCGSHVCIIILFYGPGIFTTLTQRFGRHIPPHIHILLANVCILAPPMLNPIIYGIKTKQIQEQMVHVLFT
Outline: as §1

[4] = biological target: T4, UniProt E9PZ66
T4 sequence (whole entry): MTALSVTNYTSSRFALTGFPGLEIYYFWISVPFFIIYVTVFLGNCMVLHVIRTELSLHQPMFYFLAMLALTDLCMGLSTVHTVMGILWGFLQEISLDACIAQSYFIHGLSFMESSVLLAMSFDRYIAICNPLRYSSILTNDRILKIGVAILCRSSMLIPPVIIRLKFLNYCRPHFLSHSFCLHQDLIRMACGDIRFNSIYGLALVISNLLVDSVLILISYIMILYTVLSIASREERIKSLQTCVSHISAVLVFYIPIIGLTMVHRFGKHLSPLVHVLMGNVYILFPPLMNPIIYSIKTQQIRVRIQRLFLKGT
Outline: as §1

[5] = biological target: T5, UniProt E9Q4X7
T5 sequence (whole entry): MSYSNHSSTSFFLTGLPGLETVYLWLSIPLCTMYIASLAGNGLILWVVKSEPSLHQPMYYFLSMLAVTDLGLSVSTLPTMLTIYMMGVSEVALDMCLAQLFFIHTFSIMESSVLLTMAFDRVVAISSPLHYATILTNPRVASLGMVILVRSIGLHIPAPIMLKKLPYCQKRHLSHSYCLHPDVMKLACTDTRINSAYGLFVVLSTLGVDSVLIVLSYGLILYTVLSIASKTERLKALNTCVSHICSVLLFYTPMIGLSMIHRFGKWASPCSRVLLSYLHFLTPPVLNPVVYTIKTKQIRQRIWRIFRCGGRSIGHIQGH
Outline: as §1

[6] = biological target: T6, UniProt E9Q546
T6 sequence (whole entry): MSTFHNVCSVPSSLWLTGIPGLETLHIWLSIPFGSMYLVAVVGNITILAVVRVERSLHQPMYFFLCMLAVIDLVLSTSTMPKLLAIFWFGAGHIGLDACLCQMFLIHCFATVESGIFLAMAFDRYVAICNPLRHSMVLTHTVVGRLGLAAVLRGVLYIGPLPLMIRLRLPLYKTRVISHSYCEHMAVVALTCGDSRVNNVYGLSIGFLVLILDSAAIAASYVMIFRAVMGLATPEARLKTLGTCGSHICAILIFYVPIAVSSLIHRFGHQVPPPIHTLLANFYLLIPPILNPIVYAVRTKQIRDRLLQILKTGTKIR
Outline: as §1

[7] = biological target: UniProt E9PXH6
Outline: as §1

[8] = biological target: UniProt E1BBG9
Outline: as §1

[9] = biological target: UniProt E1BM68
Outline: as §1

[10] = biological target: UniProt D1MFA5
Outline: as §1

Measured: odorant receptor agonist call

CCCCCCCCC=O
inactive: [1] | [2] | [3] | [4] | [5] | [6]

CC12CCC(C1)C(C)(C)C2=O (stereo not given)
inactive: [6]

CC(=O)c1ccccc1
active: [7]
not listed: [8] | [9] | [10]
inactive: all other assays above

CC(=O)C(C)=O
inactive: [1] | [4] | [5] | [6]

CC12CCC(CC1)C(C)(C)O2
inactive: [1] | [4] | [5] | [6]

CCCCCC(C)=O
inactive: [1] | [4] | [5] | [6]

CCCCCOC(C)=O
inactive: [1] | [2] | [3] | [4] | [5] | [6]

CCCCCCCC=O
inactive: [1] | [3] | [4] | [5] | [6]

O=C1CCCCCCCCCCCCCCO1
inactive: [4] | [5] | [6]
active: [1]

CC(C)=CCCC(C)=CC=O
inactive: [1] | [4] | [5] | [6]

C=C(C)C1CC=C(C)C(=O)C1 (stereo not given)
active: [8] | [7]
not listed: [9] | [10]
inactive: all other assays above

C=CCc1ccc(OC)c(OC)c1
inactive: [1] | [4] | [5] | [6]
active: [9]

C=CCc1ccc(O)c(OC)c1
inactive: [1] | [2] | [3] | [4] | [5] | [6]

CCCCCCCCCC=O
inactive: [1] | [3] | [4] | [5] | [6]

CCCCCC(=O)O
active: [3] | [4]
inactive: [1] | [2] | [5] | [6]

COc1cc(C=O)ccc1O
inactive: [1] | [4] | [5] | [6]

CC12C=CCC1C1CCC3CC(=O)CCC3(C)C1CC2 (stereo not given)
active: [10]
